In PubChem BioAssay AID1688 (National Center for Advancing Translational Sciences (NCATS), 2009):
Among all 220,000 compounds or so, about 2,400 (1.1%) were called active. Inconclusive results, whose numbers are uncertain, are shown with a selection of clear calls. Calls come from the whole dose curve; as a rule, active = well fitted inhibition curve with a large enough effect; inconclusive = small, poorly fitted or top-dose-only effect, or effect the other way; inactive = no such curve, though single readings can be large or run the other way. Potencies beside an inconclusive call are fits to weak or partial responses and may not hold up.

assay: qHTS Multiplex Assay to Identify Dual Action Probes in a Cell Model of Huntington: Aggregate Formation (GFP); conditions: PC12 HttQ103-GFP aggregates, Acumen cytometry, 40 h; activity change, negative = inhibition: at 46.1 µM (top of the series) unless noted; note: nearly all actives have a fitted effect of over 60% in size
How it was run: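 Huntingtin Q103 exon 1–GFP aggregates in induced PC12 cells (100 nM tebufenozide) were quantified by cytometry from lysates, with compounds dosed in titration.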
% is set by controls: 0 for no effect and ±100 for the full control effect; potency is the fitted concentration of half-maximal effect.

Row | Structure (SMILES) | Potency | activity change, negative = inhibition
1 | Cc1ccc(-n2c(O)c(/C=N/Nc3ccc(S(=O)(=O)N4CCOCC4)cc3[N+](=O)[O-])c3ccccc3c2=O)c(C)c1 | inconclusive: 25.1 µM [inhibitor, single point] | 
2 | CCOCCCNc1nc2c([nH]1)c(=O)n(C)c(=O)n2C | inconclusive: 0.316 µM [inhibitor, full curve, poor fit] | 
3 | Cc1c(C=O)c2ccccn2c1C(=O)c1ccncc1 | inconclusive: 31.6 µM [inhibitor, partial curve] | 
4 | CC1CCCC(NC(=O)CCCn2c(=S)[nH]c3ccccc3c2=O)C1C (stereo not drawn) | inconclusive: 5.62 µM [inhibitor, single point] | 
5 | O=C(c1cccc(F)c1)N1CCN(C(=O)c2cc3ncc(Br)cn3n2)CC1 | inactive | 
6 | COCCNC(=O)c1c(N)n(-c2cccc(C)c2)c2nc3ccccc3nc12 | inconclusive: 3.16 µM [inhibitor, partial curve] | 
7 | O=C(NCCCn1ccnc1)c1nn2c(C(F)(F)F)cc(-c3ccc(Br)cc3)nc2c1Cl | inactive | 
8 | Cc1ccc(CSc2nc3sc(C)c(C)c3c(=O)n2Cc2ccco2)cc1 | inconclusive: 35.5 µM [inhibitor, single point] | 
9 | Cc1nc2ccccc2n1CCCOc1ccccc1 | inconclusive: 10 µM [inhibitor, partial curve] | 
10 | CC(=O)c1ccc(N2CCN(C(=O)CCCn3c(=O)[nH]c4ccc(Br)cc4c3=O)CC2)cc1 | inconclusive: 35.5 µM [inhibitor, single point] | 
11 | COc1ccc(-n2c(SCCC#N)nnc2-c2cc(Cl)ccc2OC)cc1Cl | inactive | 
12 | CCC(=O)NC(c1ccc(OC)c(OC)c1)c1cc(Cl)c2cccnc2c1O (stereo not drawn) | inconclusive: 2.51 µM [inhibitor, partial curve] | 
13 | Cc1cnc(NC(=O)Cc2cccs2)s1 | inconclusive: 14.1 µM [inhibitor, single point] | 
14 | O=C(COc1ccc(Cl)cc1)N1CCN(c2cccc(C(F)(F)F)c2)CC1 | inconclusive: 28.2 µM [inhibitor, single point] | 
15 | O=C1c2ccccc2NC(c2ccccc2)N1Cc1ccco1 (stereo not drawn) | inconclusive: 0.112 µM [inhibitor, full curve] | 
16 | Cc1nnc(NC(=O)c2ccc3ccccc3n2)s1 | inactive | 
17 | Cc1[nH]c2ccccc2c1/C=N/NC(=O)c1cc(-c2cccs2)[nH]n1 | inactive | 
18 | CN(C)Cc1c(-c2ccc(Cl)cc2)nc2ccccn12 | active: 0.0316 µM | 
19 | COC(=O)COc1cc2ccccc2cc1C(=O)Nc1ccccc1 | inconclusive: 0.891 µM [activator, full curve] | 
20 | COc1ccc(C(=O)NNC(=O)CNC(=O)C2CCCCC2)cc1 | inactive | 
21 | CNC[C@H](O)c1ccc(O)c(O)c1 | inactive | 
22 | CCOC(=O)/C=c1\s/c(=C\c2ccc(C(=O)OC)cc2)c(=O)n1CC(=O)Nc1ccccc1 | inconclusive: 0.708 µM [activator, full curve] | 
23 | O=C(CN1CCCC1)Nc1ccc(Br)cc1 | inconclusive: 14.1 µM [activator, single point] | 

Row | Structure (SMILES) | Potency | activity change, negative = inhibition
24 | Cc1ccc(N2C(=O)c3ccc(C(=O)NCCN4CCOCC4)cc3C2=O)cc1 | inconclusive: 3.55 µM [activator, single point] | 
25 | O=C(CN1CCN(c2ncc(C(F)(F)F)cc2Cl)CC1)NCCNc1ncc(C(F)(F)F)cc1Cl | inconclusive: 35.5 µM [inhibitor, single point] | 
26 | O=C(O)Cn1ncn(-c2ccc(OC(F)(F)F)cc2)c1=O | inactive | 
27 | CN1CCN(CCCN2c3ccccc3Sc3ccc(C(F)(F)F)cc32)CC1 | inconclusive: 22.4 µM [inhibitor, single point] | 
28 | CCCOC(=O)c1cccc(Nc2nc(-c3cccnc3)nc3ccccc23)c1 | inconclusive: 11.2 µM [inhibitor, single point] | 
29 | C=CCNC(=O)c1ccc(N(C)S(=O)(=O)c2ccc(OC)cc2)cc1 | inactive | 
30 | COc1ccc([N+](=O)[O-])cc1NCc1ccccc1C | inconclusive: 17.8 µM [activator, partial curve] | 
31 | O=C(Cn1cnc([N+](=O)[O-])n1)N/N=C/c1ccc(O)cc1O | inconclusive: 7.08 µM [inhibitor, partial curve] | 
32 | Cc1ccsc1/C=N/NC(=O)c1cc(-c2ccncc2)nc2ccccc12 | inconclusive: 7.08 µM [inhibitor, full curve] | 
33 | COC(=O)Nc1nc2ccc(C(=O)c3cccs3)cc2[nH]1 | inconclusive: 0.447 µM [inhibitor, full curve, poor fit] | 
34 | Cc1cccc2c1NC(=O)/C2=C\C(=O)c1cccs1 | inactive | 
35 | CN(C)c1ccc(NS(=O)(=O)c2cc(Cl)ccc2Cl)cc1 | inconclusive: 1 µM [activator, single point] | 
36 | Cc1cc(C)[n+]2[nH]c(N)c(N=Nc3ccccc3)c2n1 |  | inactive: -15.6% [at 9.22 µM]
37 | O=C(/C=C/c1cccs1)Nc1ccc(N2CCOCC2)c(S(=O)(=O)Nc2cc(Cl)ccc2Cl)c1 | inconclusive: 2 µM [activator, partial curve] | 
38 | CC(C)N(C(=O)CSc1nc2ccccc2n1Cc1ccccc1F)C(C)C | inconclusive: 20 µM [inhibitor, single point] | 
39 | O=C(Nc1ccc(C(F)(F)F)cc1)c1cc(S(=O)(=O)NCC2COc3ccccc3O2)ccc1F (stereo not drawn) | inconclusive: 35.5 µM [inhibitor, single point] | 
40 | CC(C)C(=O)Nc1cccc(NC(=S)NC(=O)c2ccccc2Cl)c1 | inconclusive: 28.2 µM [inhibitor, single point] | 
41 | CCN1C(=O)C(CC(=O)Nc2ccc(F)cc2)N(CCCN2CCN(c3ccc(F)cc3)CC2)C1=S (stereo not drawn) | inconclusive: 35.5 µM [inhibitor, single point] | 
42 | COc1ccc(-c2nc(CN3CCC(C(=O)N4CCc5ccccc54)CC3)c(C)o2)cc1OC | inconclusive: 35.5 µM [activator, single point] | 
43 | COc1cccc(CNc2nc(SC)ncc2CO)c1 | inconclusive: 3.16 µM [inhibitor, full curve, poor fit] | 
44 | C=C(C)Cn1c(=O)c(NC(=O)c2ccccc2)c2n(c1=S)CCC2 | inconclusive: 5.62 µM [inhibitor, single point] | 
45 | O=C(/N=C1\NC(=O)C(F)(C(F)(F)F)S1)NC1CCCCC1 (stereo not drawn) | inconclusive: 4.47 µM [inhibitor, single point] | 
46 | COc1ccc(OC)c(NC(=O)COC(=O)c2c3c(nc4ccccc24)CCCC3)c1 | inconclusive: 0.631 µM [inhibitor, full curve, poor fit] | 

Row | Structure (SMILES) | Potency | activity change, negative = inhibition
47 | CN1CCN(S(=O)(=O)c2ccc3c(c2)OCCO3)CC1 | inconclusive: 0.562 µM [inhibitor, full curve, poor fit] | 
48 | CCc1ccc(NC(=O)CSc2nc3ccccc3c(=O)n2CCCN2CCC(C)CC2)cc1 | active: 22.4 µM | 
49 | CC(S)C(=O)NCC(=O)O (stereo not drawn) | inactive | 
50 | CCCC(=O)OC[C@@H](OC(=O)CCC)[C@@H](OC(=O)CCC)[C@H](Cn1c2nc(=O)[nH]c(=O)c-2nc2cc(C)c(C)cc21)OC(=O)CCC | inconclusive: 22.4 µM [inhibitor, partial curve, poor fit] | 
51 | CN(C)CCN1C(=O)c2ccccc2N(C)c2ccccc21 | inactive | 
52 | Cc1cc(C)n(-c2nnc(N3CCN(c4ccc(F)cc4)CC3)nn2)n1 | active: 11.2 µM | 
53 | CN1/C(=C\C(=O)c2ccco2)c2ccccc2CC1(C)C | inconclusive: 10 µM [inhibitor, partial curve] | 
54 | Cc1nc2c(C#N)cnn2c2c1CCN2CC1CCCO1 (stereo not drawn) | inconclusive: 35.5 µM [activator, single point] | 
55 | Clc1ccc(OCc2nn3c(-c4ccco4)nnc3s2)cc1 | inconclusive: 15.8 µM [inhibitor, single point] | 
56 | O=C(O)CCC(=O)NC1CCCCC1 | inactive | 
57 | CC(C)(C)C(=O)Nc1ccc(C(=O)N/N=C/C2CC3C=CC2C3)cc1 (stereo not drawn) | inconclusive: 0.316 µM [inhibitor, partial curve] | 
58 | COc1ccc(C2CC(=O)c3cnc(N4CCN(Cc5ccccc5)CC4)nc3C2)cc1 (stereo not drawn) | inconclusive: 11.2 µM [inhibitor, partial curve, poor fit] | 
59 | O=C(COC(=O)CCCSc1nc2ccccc2[nH]1)Nc1ccc(Oc2ccccc2)cc1 | inconclusive: 0.562 µM [inhibitor, full curve] | 
60 | COCCN1Cc2cccc(C(=O)Nc3c(C)cc(C)cc3C)c2C1=O | inconclusive: 6.31 µM [activator, single point] | 
61 | O=C1c2sc3nc4n(c(=O)c3c2CCC1Br)CCCCC4 (stereo not drawn) | inactive | 
62 | CCN1C(=S)SC(=O)C1=C1C=C(C)N(Cc2ccco2)C(C)=C1 | inconclusive: 35.5 µM [inhibitor, single point] | 
63 | CN1C(=O)C[C@@H](C(=O)N[C@@H](Cc2cnc[nH]2)C(=O)N2CCC[C@H]2C(N)=O)NC1=O | inactive | 
64 | O=C1CC(Sc2nnc(-c3ccccc3)o2)C(=O)N1c1ccccc1 (stereo not drawn) | inconclusive: 35.5 µM [inhibitor, single point] | 
65 | CCOc1ccc(S(=O)(=O)NC(C)(C)C)cc1-c1nc2c(C(C)(C)C)nn(C)c2c(=O)[nH]1 | inconclusive: 35.5 µM [inhibitor, single point] | 
66 | CCOc1cc(/C=C2/C(=O)ON=C2C)ccc1OCc1ccccc1 |  | inactive: 16.3% [at 9.22 µM]
67 | COc1cccc(CC2(CO)CCCN(Cc3sc(N4CCCC4)nc3Cl)C2)c1 (stereo not drawn) | inconclusive: 22.4 µM [inhibitor, single point] | 
68 | CCOC(=O)c1ccc(N2C(=O)c3n[nH]c(C)c3C2c2ccccn2)cc1 (stereo not drawn) | inactive | 

Quoted from above: entries 48 to 64
Row | Structure (SMILES) | Potency | activity change, negative = inhibition
48 | CCc1ccc(NC(=O)CSc2nc3ccccc3c(=O)n2CCCN2CCC(C)CC2)cc1 | active: 22.4 µM | 
49 | CC(S)C(=O)NCC(=O)O (stereo not drawn) | inactive | 
50 | CCCC(=O)OC[C@@H](OC(=O)CCC)[C@@H](OC(=O)CCC)[C@H](Cn1c2nc(=O)[nH]c(=O)c-2nc2cc(C)c(C)cc21)OC(=O)CCC | inconclusive: 22.4 µM [inhibitor, partial curve, poor fit] | 
51 | CN(C)CCN1C(=O)c2ccccc2N(C)c2ccccc21 | inactive | 
52 | Cc1cc(C)n(-c2nnc(N3CCN(c4ccc(F)cc4)CC3)nn2)n1 | active: 11.2 µM | 
53 | CN1/C(=C\C(=O)c2ccco2)c2ccccc2CC1(C)C | inconclusive: 10 µM [inhibitor, partial curve] | 
54 | Cc1nc2c(C#N)cnn2c2c1CCN2CC1CCCO1 (stereo not drawn) | inconclusive: 35.5 µM [activator, single point] | 
55 | Clc1ccc(OCc2nn3c(-c4ccco4)nnc3s2)cc1 | inconclusive: 15.8 µM [inhibitor, single point] | 
56 | O=C(O)CCC(=O)NC1CCCCC1 | inactive | 
57 | CC(C)(C)C(=O)Nc1ccc(C(=O)N/N=C/C2CC3C=CC2C3)cc1 (stereo not drawn) | inconclusive: 0.316 µM [inhibitor, partial curve] | 
58 | COc1ccc(C2CC(=O)c3cnc(N4CCN(Cc5ccccc5)CC4)nc3C2)cc1 (stereo not drawn) | inconclusive: 11.2 µM [inhibitor, partial curve, poor fit] | 
59 | O=C(COC(=O)CCCSc1nc2ccccc2[nH]1)Nc1ccc(Oc2ccccc2)cc1 | inconclusive: 0.562 µM [inhibitor, full curve] | 
60 | COCCN1Cc2cccc(C(=O)Nc3c(C)cc(C)cc3C)c2C1=O | inconclusive: 6.31 µM [activator, single point] | 
61 | O=C1c2sc3nc4n(c(=O)c3c2CCC1Br)CCCCC4 (stereo not drawn) | inactive | 
62 | CCN1C(=S)SC(=O)C1=C1C=C(C)N(Cc2ccco2)C(C)=C1 | inconclusive: 35.5 µM [inhibitor, single point] | 
63 | CN1C(=O)C[C@@H](C(=O)N[C@@H](Cc2cnc[nH]2)C(=O)N2CCC[C@H]2C(N)=O)NC1=O | inactive | 
64 | O=C1CC(Sc2nnc(-c3ccccc3)o2)C(=O)N1c1ccccc1 (stereo not drawn) | inconclusive: 35.5 µM [inhibitor, single point] | 
